“And” between values parts separate entries of the source, which are not always exact repeats. Equal values may be shown once. The list shows a part of the results.
How the values were obtained:
Test in all cases: protein microarray (ProtoArray v5.0), streptavidin-Alexa Fluor 647
Conditions in all cases: 3'-biotin; 20 mM Tris (pH 7.5), 5 mM MgCl2, 100 mM KCl, 0.1% Tween-20, A/T-rich and random oligonucleotide blockers; temperature not stated; high values mean tight binding
[1] = test system: Regulator of G-protein signaling 20 (human)
[2] = test system: Repulsive guidance molecule A (human)
[3] = test system: Retinal dehydrogenase 1 (human)
[4] = test system: Retinoid-binding protein 7 (human)
[5] = test system: Retinol-binding protein 1 (human)
[6] = test system: Rho GDP-dissociation inhibitor 3 (human)
[7] = test system: Rho GTPase-activating protein 29 (human)
[8] = test system: Rho GTPase-activating protein SYDE1 (human)
[9] = test system: Rho guanine nucleotide exchange factor 1 (human)
[10] = test system: Riboflavin kinase (human)

“GGGAGGCTGAGGCAGG [G4-1 biotinylated (PQS2)]” was tested, and the binding signal [1] was -0.335 z-score and -0.258 z-score, the binding signal [2] was -0.325 z-score and the binding signal [3] was -0.348 z-score. For the same sequence, the binding signal [4] was -0.35 z-score, the binding signal [5] was -0.326 z-score and the binding signal [6] was -0.338 z-score. The binding signal [7] was -0.342 z-score, the binding signal [8] was -0.289 z-score and the binding signal [9] was -0.264 z-score and -0.279 z-score. It also gave a binding signal [10] of -0.295 z-score.

Source: paper PMC5996148
